These are yes or no findings as the source states them, for the method shown. Binding seen in cells or lysates may run through a third protein. Some binding calls cover weakened binding; strength is not graded here.
Assays:
[1] = molecular target: T1, vascular endothelial cadherin (human (endogenous in HUVECs)) (UniProt P33151); experiment: proximity ligation; Duolink in situ PLA on fixed HUVECs exposed to OSS (disturbed flow) for 24 h; endogenous proteins stained with anti-CAR and anti-VEGFR2, anti-VE-cadherin or anti-PECAM-1; siCAR-transfected cells as negative control
T1 sequence: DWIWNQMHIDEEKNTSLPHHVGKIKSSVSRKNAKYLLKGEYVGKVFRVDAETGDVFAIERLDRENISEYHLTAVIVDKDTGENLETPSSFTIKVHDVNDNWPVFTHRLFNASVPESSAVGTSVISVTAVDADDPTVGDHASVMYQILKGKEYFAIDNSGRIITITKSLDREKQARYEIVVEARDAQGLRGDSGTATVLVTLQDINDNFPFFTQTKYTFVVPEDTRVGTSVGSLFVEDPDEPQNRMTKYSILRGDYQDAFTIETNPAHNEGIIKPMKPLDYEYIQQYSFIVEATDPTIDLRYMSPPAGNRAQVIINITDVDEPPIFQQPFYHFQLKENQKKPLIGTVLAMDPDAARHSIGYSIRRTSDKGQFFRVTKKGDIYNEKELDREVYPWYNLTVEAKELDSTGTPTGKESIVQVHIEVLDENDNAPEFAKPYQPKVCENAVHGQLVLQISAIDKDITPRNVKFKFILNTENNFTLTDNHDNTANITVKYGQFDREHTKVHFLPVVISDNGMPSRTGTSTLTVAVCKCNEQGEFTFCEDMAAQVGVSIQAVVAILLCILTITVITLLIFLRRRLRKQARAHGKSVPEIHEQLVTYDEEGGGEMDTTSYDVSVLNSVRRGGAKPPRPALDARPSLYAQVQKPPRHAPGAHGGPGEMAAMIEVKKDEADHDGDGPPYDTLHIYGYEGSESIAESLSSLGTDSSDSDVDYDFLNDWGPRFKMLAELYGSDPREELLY

Amino acid sequences for entries named in this document (tags omitted). Residues count along the entry.
UniProt P35968, residues 20-1356: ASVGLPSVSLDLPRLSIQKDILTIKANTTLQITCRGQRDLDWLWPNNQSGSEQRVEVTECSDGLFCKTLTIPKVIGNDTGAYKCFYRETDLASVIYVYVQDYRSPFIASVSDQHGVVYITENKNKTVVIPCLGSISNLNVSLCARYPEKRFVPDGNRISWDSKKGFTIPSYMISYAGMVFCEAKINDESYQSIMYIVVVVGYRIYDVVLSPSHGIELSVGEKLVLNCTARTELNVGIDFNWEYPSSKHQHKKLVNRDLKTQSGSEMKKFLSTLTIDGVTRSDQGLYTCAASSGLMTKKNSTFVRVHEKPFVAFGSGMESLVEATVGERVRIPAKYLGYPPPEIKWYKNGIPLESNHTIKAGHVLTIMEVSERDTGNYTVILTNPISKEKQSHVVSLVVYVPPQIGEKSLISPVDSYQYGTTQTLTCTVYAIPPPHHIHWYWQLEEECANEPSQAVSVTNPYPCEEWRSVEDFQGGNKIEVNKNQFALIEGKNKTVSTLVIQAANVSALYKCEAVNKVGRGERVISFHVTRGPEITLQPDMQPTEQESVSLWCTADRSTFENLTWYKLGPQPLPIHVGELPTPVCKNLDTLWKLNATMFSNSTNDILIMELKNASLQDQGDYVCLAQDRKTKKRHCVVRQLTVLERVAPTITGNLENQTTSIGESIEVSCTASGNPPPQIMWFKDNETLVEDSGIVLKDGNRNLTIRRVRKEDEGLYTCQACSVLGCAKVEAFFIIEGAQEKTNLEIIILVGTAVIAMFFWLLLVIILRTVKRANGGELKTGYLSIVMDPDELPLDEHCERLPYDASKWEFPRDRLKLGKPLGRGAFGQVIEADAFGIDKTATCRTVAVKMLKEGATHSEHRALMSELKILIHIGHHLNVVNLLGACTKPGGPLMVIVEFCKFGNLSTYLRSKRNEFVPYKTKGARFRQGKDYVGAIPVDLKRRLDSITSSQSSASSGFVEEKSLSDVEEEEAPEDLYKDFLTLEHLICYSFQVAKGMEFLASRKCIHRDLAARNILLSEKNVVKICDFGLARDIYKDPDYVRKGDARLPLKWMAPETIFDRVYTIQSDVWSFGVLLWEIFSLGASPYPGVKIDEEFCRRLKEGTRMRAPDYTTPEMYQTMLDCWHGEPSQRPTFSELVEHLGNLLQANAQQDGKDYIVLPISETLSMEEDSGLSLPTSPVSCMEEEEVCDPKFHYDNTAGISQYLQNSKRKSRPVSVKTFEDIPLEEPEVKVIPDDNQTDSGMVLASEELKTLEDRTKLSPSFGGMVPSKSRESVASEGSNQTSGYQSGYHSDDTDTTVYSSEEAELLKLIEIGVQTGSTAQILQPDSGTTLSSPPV
UniProt P78310, residues 20-365: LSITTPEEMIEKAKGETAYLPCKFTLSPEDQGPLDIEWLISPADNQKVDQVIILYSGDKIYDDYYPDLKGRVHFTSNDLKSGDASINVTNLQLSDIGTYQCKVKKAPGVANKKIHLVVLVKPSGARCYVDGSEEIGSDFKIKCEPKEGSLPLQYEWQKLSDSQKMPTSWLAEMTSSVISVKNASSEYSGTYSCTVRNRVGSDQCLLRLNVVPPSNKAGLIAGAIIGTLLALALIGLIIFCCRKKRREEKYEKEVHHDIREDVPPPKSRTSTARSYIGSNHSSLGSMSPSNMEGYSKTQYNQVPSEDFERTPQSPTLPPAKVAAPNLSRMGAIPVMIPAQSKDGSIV

[2] = molecular target: vascular endothelial growth factor receptor 2 (human (endogenous in HUVECs)) (UniProt P35968); experiment: as above

## coxsackievirus and adenovirus receptor (from UniProt P78310 20-365)
[1]
  binding: binds
[2]
  binding: binds

Reference: PMC6881322
